Assay results taken from PubChem BioAssay AID2551 (National Center for Advancing Translational Sciences (NCATS), 2010).
The campaign covered roughly 310,000 compounds. About 17,000 (5.5%) were called active. The shares of active, inactive and inconclusive entries below differ from those in the screen. The call rests on the fitted dose curve; in most records, active means well fitted inhibition curve with a large enough effect; inconclusive means small, poorly fitted or top-dose-only effect, or effect the other way; inactive means no such curve, though single readings can be large or run the other way. Potencies of inconclusive entries are doubtful fits and often do not repeat.

Amino acid sequences for entries named in this document (tags omitted). A change or cut given only in a name is not applied to a line headed by its entry.
UniProt P51450: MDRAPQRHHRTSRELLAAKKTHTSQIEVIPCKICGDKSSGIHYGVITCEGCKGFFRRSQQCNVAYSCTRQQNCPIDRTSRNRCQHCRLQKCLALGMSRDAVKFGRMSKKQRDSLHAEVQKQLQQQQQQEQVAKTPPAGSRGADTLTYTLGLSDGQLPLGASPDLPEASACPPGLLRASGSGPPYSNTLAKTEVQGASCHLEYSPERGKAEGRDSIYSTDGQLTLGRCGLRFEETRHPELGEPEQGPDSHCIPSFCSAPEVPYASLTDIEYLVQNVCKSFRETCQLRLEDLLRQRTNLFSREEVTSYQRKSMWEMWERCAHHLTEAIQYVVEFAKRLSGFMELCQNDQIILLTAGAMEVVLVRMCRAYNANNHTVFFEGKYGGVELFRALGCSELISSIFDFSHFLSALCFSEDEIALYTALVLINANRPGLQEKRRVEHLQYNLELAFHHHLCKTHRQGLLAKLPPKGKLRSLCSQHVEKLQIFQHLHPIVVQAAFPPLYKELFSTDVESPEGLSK

Molecular target: Nuclear receptor ROR-gamma (Mus musculus) (UniProt P51450)
Experiment: qHTS for inhibitors of ROR gamma transcriptional activity; further: nearly all actives have a fitted effect of over 60% in size
Settings: Drosophila S2 Gal4-RORgamma UAS-luciferase reporter, 20 h; activity change, negative = inhibition: at 53.6 µM (top of the series)
In short: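 ROR gamma transcriptional activity was tracked as Gal4-UAS luciferase output in stably transfected Drosophila Schneider cells, with compound added 1 hr before 700 uM copper sulfate induction and a 20 hr ambient-temperature incubation.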
On the % scale 0 is the no-effect control and ±100 the full control effect; potency means the concentration at half of the fitted maximal effect.

Row | SMILES | activity change, negative = inhibition | Potency
1 | CCCCc1nc2cc(C(=O)NCc3nccn3CC)ccc2o1 | inactive: -27.2% | 
2 | CCOC(=O)C1C(=O)N(C(=O)c2ccc(OC)cc2)CC1c1ccccc1 (centres undefined) |  | inconclusive: 35.5 µM [inhibitor, single point]
3 | Cc1ccc(Sc2ncccc2COC(=O)Nc2ccccc2)cc1 |  | inconclusive: 11.2 µM [activator, partial curve]
4 | COc1ccc2c(-c3ccccc3)cc(SCC(=O)NC3CCS(=O)(=O)C3)nc2c1 (centres undefined) |  | active: 11.2 µM
5 | CC1(C)Cc2c(sc(NC(=O)Nc3ccccc3)c2C(N)=O)CO1 |  | inconclusive: 1.78 µM [activator, full curve]
6 | COc1ccc(C2c3ccc4ccccc4c3Oc3ncn(CCO)c(=N)c32)cc1 (centres undefined) |  | inconclusive: 35.5 µM [inhibitor, single point]
7 | Cn1cc(C(=O)Nc2ccc(C#N)cc2)c2ccccc2c1=O |  | inconclusive: 12.6 µM [inhibitor, single point]
8 | CC(=O)N1CCc2c(sc(NC(=O)CCS(=O)(=O)c3ccccc3)c2C#N)C1 |  | inconclusive: 17.8 µM [inhibitor, single point]
9 | Brc1ccc2c(c1)C(c1cccs1)=NNC(c1cccnc1)=N2 |  | inconclusive: 17.8 µM [activator, partial curve, poor fit]
10 | COc1ccccc1N1CCN(C(=O)c2ccc3nc(-c4ccco4)c(-c4ccco4)nc3c2)CC1 | inactive: -19.9% | 
11 | O=[N+]([O-])c1cc(-c2nnc(-c3ccccc3)o2)ccc1Oc1ccc(Cl)cc1 | inactive: 44.8% | 
12 | CC(=O)NC(Cc1cccc(F)c1)C(=O)NC1CCN(c2nnnn2-c2ccccc2)CC1 (centres undefined) | inactive: 6.07% | 
13 | S=C(NCc1ccncc1)Nc1ccc(Cl)c(Cl)c1 |  | inconclusive: 15.8 µM [activator, single point]
14 | CCC(C)(O)c1[nH]c2ccc(C#N)cc2c1C (centres undefined) |  | inconclusive: 35.5 µM [inhibitor, single point]
15 | C/C(=N/NC(=O)c1ccco1)c1ccc(NC(=O)c2ccc(Br)o2)cc1 |  | inconclusive: 1.78 µM [activator, full curve, poor fit]
16 | NC(=O)C1CCN(C(=O)CSc2nc(O)cc(=O)[nH]2)CC1 | inactive: -17.4% | 
17 | CCOC(=O)c1ccc(NC2=CC(=O)C(=O)c3ccccc32)cc1 |  | inconclusive: 15.8 µM [inhibitor, single point]
18 | Cc1oc(-c2ccc3c(c2)OCCO3)cc1C(=O)NC(CCC(=O)O)C(=O)O (centres undefined) |  | inconclusive: 0.0071 µM [inhibitor, full curve, poor fit]
19 | COC(=O)C1=C(C)N(Cc2ccccc2)C(=NCCc2cccnc2)N[C@H]1c1ccc(Br)cc1 |  | inconclusive: 35.5 µM [inhibitor, single point]

Numbers 5–6 of the list above:
Row | SMILES | activity change, negative = inhibition | Potency
5 | CC1(C)Cc2c(sc(NC(=O)Nc3ccccc3)c2C(N)=O)CO1 |  | inconclusive: 1.78 µM [activator, full curve]
6 | COc1ccc(C2c3ccc4ccccc4c3Oc3ncn(CCO)c(=N)c32)cc1 (centres undefined) |  | inconclusive: 35.5 µM [inhibitor, single point]
